Out of some 360,000 compounds screened, about 780 (0.22%) were called active. Inconclusive means that the source gave no clear call. Such entries were picked first, then a sample of the others. Cut-off read from the data, not from the text of the source: active = inhibition above about 35% (passing the limit was not always enough); inconclusive = no clear call, values can overlap the other calls.
System: Botulinum neurotoxin type F light chain protease (Clostridium botulinum)
Assay: BoNT/F light chain protease inhibitors, primary screen, biochemical, flow cytometry, MLPCN library (AID 588497); note: plate controls were buffer without enzyme for full effect and enzyme alone for no effect
Conditions: Multiplex microsphere protease cleavage assay, at 10 µM, active compounds read high

Compound	inhibition
c1ccc(-c2cc(-c3ccccc3)ncn2)cc1	inconclusive: -4.6%
CC(=O)c1ccc(NC(=O)c2cc(C)nc3ccccc23)cc1	inconclusive: -7.7%
Cc1ccc([N+](=O)[O-])cc1-c1[nH]c(-c2ccc(O)c(O)c2)nc1-c1ccccc1	inactive: -6.4%
COc1ccc(-c2csc3nc(-c4ccccc4F)oc(=O)c23)cc1	inconclusive: 7.8%
O=C(Nc1cccc(NC(=O)c2ccco2)n1)c1ccco1	inconclusive: -21%
COc1ccc(C(=O)NC(=O)COC(=O)C2CC2C)cc1 (centres undefined)	inactive: -16.1%
O=C1NC(c2ccccc2O)Nc2ccccc21 (centres undefined)	inconclusive: 9.5%
CCc1nc(Nc2ccccc2F)c2oc3ccccc3c2n1	inconclusive: 11.9%
Cc1nc2ccccc2c(=O)n1Cc1ccc([N+](=O)[O-])cc1	inconclusive: -49.6%
COc1ccc(NC(=O)N2CC(C)OC(C)C2)cc1OC (centres undefined)	inactive: -4.4%
COc1ccc(Cl)cc1NC(=O)CN(C)CC(=O)Nc1cc(OC)c(OC)c(OC)c1	inconclusive: 9.4%
CC1CCN(C(=O)COc2ccc(S(=O)(=O)N3CCOCC3)cc2)CC1	inactive: 2.4%
Nc1ccc(OCCCc2c(N)nc(N)nc2N)cc1	inactive: -193%
Cc1cc(C)c2c(N)c(C(=O)N/N=C/c3cccs3)sc2n1	inconclusive: 19.8%
COc1cc([N+](=O)[O-])cc(/C=N/NC(=O)c2cc(-c3ccccc3)nc3ccccc23)c1O	inactive: -9%
O=C(CCNc1cccc(F)c1)c1cc2ccccc2o1	inactive: 3.1%
CCN(CC)c1nc(Oc2ccc(C(=O)NN)cc2)nc(Oc2ccc(C(=O)NN)cc2)n1	inconclusive: -12.4%
Cc1cccc(N2CCN(C(=O)CNC(=O)Cc3ccccc3)CC2)c1C	inconclusive: -0.8%
O=C(CSc1nnc2ccc(-c3cccnc3)nn12)Nc1ccccc1F	inconclusive: 9.2%
COc1ccc(CC(=O)N2CCc3cc(OC)c(OC)cc3C2O)cc1OC (centres undefined)	inconclusive: -9%
COc1ccc(N2CCN(CC(O)COc3ccc(F)cc3)CC2)cc1 (centres undefined)	inconclusive: -56.4%
Cc1c(Cc2c(C)n(C)n(-c3ccccc3)c2=O)c(=O)n(-c2ccccc2)n1C	inactive: 1%
CCN(CC)CCCNC(=S)N(CCO)Cc1cc2cc3c(cc2[nH]c1=O)OCCO3	inconclusive: -18.8%

Compound	inhibition
O=C(Nc1ccc(S(=O)(=O)Nc2nccs2)cc1)c1ccc(=O)[nH]c1	inactive: 0.8%
CCCCCn1c(=O)c(C(=O)Nc2cccc(C)c2)c(O)c2ccccc21	inconclusive: 18.4%
CC(C)(C)NS(=O)(=O)c1ccc(NC(=O)c2cc(-c3ccccc3)nc3ccccc23)cc1	inconclusive: 0%
Cc1cc(C)c(C)c(S(=O)(=O)N2CCN(Cc3nc4ccccc4[nH]3)CC2)c1C	inactive: 1.7%
O=[N+]([O-])c1cccc(/C=N/N=C\c2ccccc2)c1	inconclusive: -61.9%
O=C(Nc1cccc(NC(=O)c2ccc(Br)cc2)c1)c1ccccc1	inconclusive: -25.1%
COc1cccc(NC(=O)c2cc(-c3ccc(OC)cc3OC)nc3ccccc23)c1	inconclusive: -45.8%
O=C(C[C@H]1C[C@H](C(=O)N2CCOCC2)[C@@]2(CCC3CCCC3)c3[nH]c4ccc(Cl)cc4c3CCN2C1=O)NCCCn1ccnc1	inactive: -2.9%
O=c1cc(CN2CCC3(CC2)OCCO3)c2c(ccc3ccccc32)o1	inconclusive: 3.7%
CCOc1ccc(N=Cc2c(O)n(CCc3ccc(OC)c(OC)c3)c(=O)[nH]c2=O)cc1	inconclusive: 33.1%
Cc1cc(C(=O)Nc2ccc(F)cc2)c2ccccc2n1	inconclusive: -9.3%
CC(C)CN1C(=O)C(=O)N(CC(=O)N2c3ccccc3NC(=O)CC2C)C1=O (centres undefined)	inconclusive: -3.8%
CN1C[C@H]2CON(C)[C@H]2C[C@H]1c1cccc(N2CCOCC2)c1	inactive: -1.4%
CCN(CC)CCCNc1nc(N)c([N+](=O)[O-])c(NCCO)n1	inconclusive: 2.2%
CCCOP(=O)(c1ccc(N(C)C)cc1)C(Nc1ccccc1)c1ccc(C)cc1 (centres undefined)	inconclusive: 45.1%
CCOc1ccc2nc(Nc3nc(CSc4nnnn4-c4ccccc4)cc(=O)[nH]3)nc(C)c2c1	inactive: 0.7%
COc1ccc(NC(=O)CSc2nnc(C3CCCCC3)n2N)cc1	inconclusive: -18.4%
COc1ccc(OC)c(N/C(C)=C/C(=O)c2ccncc2)c1	inconclusive: -55.4%
COc1cc(-c2nn3c(COc4ccccc4)nnc3s2)cc(OC)c1OC	inactive: 1.2%
COCCc1ccc(OC2(C)CCN(Cc3cccc(OC)c3OC)C2)cc1 (centres undefined)	inactive: -4.7%
CC(CC(=O)O)CC(=O)Nc1ccc(Br)cc1 (centres undefined)	inconclusive: -11.7%
CCN(CC)c1ccc(/C=N/N2CCN(c3ccccn3)CC2)cc1	inconclusive: 10.6%
CCOC(=O)C1C(=O)C=C(C)C(C(=O)OCC)C1c1cccc([N+](=O)[O-])c1 (centres undefined)	inconclusive: 25.3%

Compound	inhibition
Cn1c(N2CCOCC2)nc2c1c(=O)n(Cc1ccc(Cl)c(Cl)c1)c(=O)n2C	inconclusive: -6.4%
COc1cc(NC(=O)c2ccc(N3CC4CC(C3)c3cccc(=O)n3C4)c(NC(=O)c3ccncc3)c2)cc(OC)c1OC (centres undefined)	inactive: -2.4%
COc1cc(N=Nc2cccc(S(N)(=O)=O)c2)c2ccccc2c1N	inconclusive: -61.1%
Cc1nc(C(F)(F)F)ccc1C(=O)N1CCC1(C)C(=O)NS(=O)(=O)c1ccc2ccccc2c1 (centres undefined)	inactive: 2.6%
COc1ccc(S(=O)(=O)N(Cc2ccccc2)c2ccccc2C(=O)O)cc1	inconclusive: 9.4%
COC(=O)c1ccc(CN2CCCC(CNC(=O)Cc3ccc(OC)cc3)C2)cc1 (centres undefined)	inconclusive: 51.7%
O=C(c1cccc([N+](=O)[O-])c1)N1CCCC(C(=O)N2CCCCC2)C1 (centres undefined)	inconclusive: -142%
Nc1nnc(CSCc2ccccc2Cl)s1	inconclusive: -40.9%
CCc1n[nH]c(=S)n1/N=C/c1ccccn1	inconclusive: 5.1%
COc1ccc(Nc2nc(N3CCN(S(C)(=O)=O)CC3)nc3ccccc23)c(OC)c1	inconclusive: -31.8%
O=C1OC(c2cccs2)=N/C1=C\c1ccc(-c2ccccc2Cl)o1	inactive: 17.9%
Cc1nnc(SCC(=O)Nc2ccc([N+](=O)[O-])cc2)n1C	inconclusive: 13.5%
O=C1NC(=O)C(Cc2cccc(Oc3ccccc3)c2)S1 (centres undefined)	inconclusive: 8.6%
CC1(C)Cc2c(c(N3CCOCC3)nc3sc4c(NCC5CCCO5)nnnc4c23)CS1 (centres undefined)	inconclusive: -9.5%
O=C(O)CSc1nc(-c2ccccc2)c(-c2ccccc2)[nH]1	inactive: -8.9%
COCCCN1CC(=O)N2Cc3[nH]c4ccccc4c3C[C@H]2C1=O	inactive: 12.4%
N#Cc1ccc(NCCc2ccccn2)c([N+](=O)[O-])c1	inconclusive: 4.7%
COc1ccc(CCNC(=O)c2c(O)c3c([nH]c2=O)CCCC3)cc1OC	inconclusive: -26.6%
CC(C)(C)NS(=O)(=O)c1ccc(N2C(=O)c3ccccc3C2=O)cc1	inconclusive: -2.5%
CSCC(O)Cn1[nH]c(=O)c2cc(Cl)c(Cl)cc2c1=O (centres undefined)	inconclusive: -216%
COc1ccc(NC(=O)CSc2nnc(Cc3ccc(C)cc3)c(=O)n2N)cc1	inconclusive: 2.5%
COc1cccc(NC(=O)c2c(C)nn(-c3ccccc3)c2Cl)c1	inconclusive: -30.6%
O=C(NCc1nc(-c2ccc(C(F)(F)F)cc2)no1)c1cccs1	inconclusive: -54.3%

Compound	inhibition
O=C(CSC1=NCCN1)NC1CCCCCC1	inconclusive: 11.2%
O=c1ccc2ccccc2n1Cc1cccc(F)c1	inconclusive: -20%
COc1ccc(-c2nnc(NC(=O)c3ccco3)s2)cc1	inactive: -0.6%
O=C(Nc1cccc(NC(=O)c2ncn[nH]2)c1)c1cccc(Cl)c1	inactive: 1%
CN(C)CCO[C@@H](c1ccc(Cl)cc1)c1ccccn1	inconclusive: -18.9%
C/C(=N\NC(=O)c1cccc(O)c1)c1cccc(NC(=O)c2ccc(F)cc2)c1	inconclusive: 2.7%
COC(=O)c1ccc(/C=N/NC(=O)C(=O)NCC2CCCO2)cc1 (centres undefined)	inconclusive: 194%
COc1ccc(C(=O)NC2CCN(S(=O)(=O)c3ccccc3)CC2)cc1	inconclusive: 14.1%
O=C1CSC(c2cccnc2)N1CCc1ccccn1 (centres undefined)	inconclusive: 19.8%
OCc1nc2ccccc2n1/N=C/c1cccs1	inconclusive: -60.4%
Cc1ccc(N(CC(=O)Nc2ccccc2-c2ccccc2)S(=O)(=O)c2ccccc2)cc1	inconclusive: 5.9%
O=C(Cn1nc(-c2ccccc2)c2ccccc2c1=O)Nc1ccc(F)cc1	inconclusive: 0%
CCOC(=O)/C(=C/Nc1ccc(F)cc1)[N+](=O)[O-]	inconclusive: 32.4%
COc1cc(/C=C2\SC(=S)N(NC(=O)c3ccccc3O)C2=O)ccc1O	inactive: 0.7%
Cc1ccn2c(=O)nc(SCC(=O)NC3CCCC3)nc2c1	inconclusive: 23.2%
CCCCNC(=S)NNC(=O)CCn1cc(C)cn1	inactive: -7.7%
Cc1onc(-c2ccccc2Cl)c1C(=O)Nc1ccc(Cl)cn1	inconclusive: 182%
Cc1ccc(NC2CCCN(C(=O)c3ccccc3-c3ncc[nH]3)C2)cc1C (centres undefined)	inconclusive: -3.3%
CCN1CCN(CCC(=O)Nc2ccc(F)c(F)c2)CC1	inconclusive: 4.3%
Cc1ccnc(Nc2nc(-c3ccc(O)cc3)cs2)c1	inconclusive: -1.4%

Reference: PubChem BioAssay AID588497 (NMMLSC, 2011)
